Laboratory results: PubChem BioAssay AID493014 (National Center for Advancing Translational Sciences (NCATS), 2011)
The other results are listed elsewhere or left out. Further columns of the screen follow, without active or inactive calls. Most of these compounds were active or inconclusive in the main read-out, so they are no random draw. The note in brackets gives the kind of curve behind each potency; many fits are weak.

Test: qHTS Assay to Find Inhibitors of Chronic Active B-Cell Receptor Signaling
Details: ABC-DLBCL IkBa-CBG/CBR reporter, luminescence ratio (green luciferase fused to IkBa over red control in TMD8 lymphoma cells), 4 h; measured here: CBR red luminescence, cell number
In short: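 Cell line TMD8 (human ABC DLBCL), stably expressing tet-inducible CBG68-IkBa fusion and CBR; IMDM/0.5% FBS; cpd up to 46 uM; dox induction, 4 h, 37C/5% CO2; dual luminescence; green/red ratio; MG132 control.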

Structure (SMILES) | AC50
Cn1nc([N+](=O)[O-])nc1S(C)(=O)=O | 15.8 µM [falling, single point]
COc1cc(/C=N/NC(=O)c2ccncc2)ccc1OC(=O)c1cccc(F)c1 | 17.8 µM [rising, single point]
CC1CCc2c(sc(NC(=O)/C=C/c3cccs3)c2C(=O)O)C1 (stereo not drawn) | 3.16 µM [falling, full curve]
O=C(c1ccc(S(=O)(=O)NCc2ccco2)cc1)N1CCN(c2ccc(F)cc2)CC1 | 29.1 µM [rising, partial curve, poor fit]
O=C(O)c1nnn(-c2ccc([N+](=O)[O-])cc2)c1-c1ccccc1 | 1.26 µM [rising, partial curve]
CC(=O)Nc1nc(C)c(CCCOc2ccc([N+](=O)[O-])cc2)c(=O)[nH]1 | 25.1 µM [rising, single point]
Cc1cc(O)ccc1Nc1nc(-c2sc(N)nc2C)cs1 | 14.6 µM [falling, partial curve]
COc1ccccc1NC(=O)c1cc(-c2cc(OC)c(OC)c(OC)c2)nc2ccccc12 | 4.47 µM [falling, partial curve, poor fit]
CCC1SC2=NC(C)=C(C(=O)OC)C(c3ccc(C)cc3)N2C1=O (stereo not drawn) | 2.91 µM [rising, single point]
Cc1ccccc1-c1ncc(CN2CCN(C3CCCC3)C(CCO)C2)cn1 (stereo not drawn) | 20 µM [rising, partial curve, poor fit]
Cc1cc(NC(=O)CSc2n[nH]c(-c3ccc(Cl)cc3Cl)n2)no1 | 29.1 µM [falling, single point]
O=C(Nc1ccc2[nH]ncc2c1)c1ccc(F)cc1 | 28.2 µM [falling, single point]
O=C(Nc1cccc(CCc2ccccn2)c1)c1ccc(Cl)cc1 | 11.2 µM [falling, partial curve, poor fit]
CCOc1ccccc1OCCCC(=O)N1CCN(S(=O)(=O)c2ccc(C)cc2C)CC1 | 23.1 µM [rising, partial curve, poor fit]
Cc1ccccc1NC(=O)c1cc2ccccn2n1 | 17.8 µM [falling, partial curve, poor fit]
N/C(=N\OC(=O)CCc1ccccc1)c1cccnc1 | 11.2 µM [falling, single point]
Cc1ccc(C)c(S(=O)(=O)N2CCCN(C)CC2)c1 | 6.31 µM [falling, partial curve, poor fit]
CCCc1cc(=O)n2[nH]c(C)nc2n1 | 0.13 µM [falling, full curve, poor fit]

Taken from the listing for reference:
Structure (SMILES) | AC50
Cn1nc([N+](=O)[O-])nc1S(C)(=O)=O | 15.8 µM [falling, single point]
COc1cc(/C=N/NC(=O)c2ccncc2)ccc1OC(=O)c1cccc(F)c1 | 17.8 µM [rising, single point]
